Results taken from the supplement of paper PMC10849652.
The other results are listed elsewhere or left out. Residues, ends and D or L forms follow the SMILES beside them. *: point of attachment. Cbz = O=C(OCc1ccccc1)*

Amino acid sequences for entries named in this document (tags omitted). A change or cut given only in a name is not applied to a line headed by its entry.
UniProt Q8IZ52: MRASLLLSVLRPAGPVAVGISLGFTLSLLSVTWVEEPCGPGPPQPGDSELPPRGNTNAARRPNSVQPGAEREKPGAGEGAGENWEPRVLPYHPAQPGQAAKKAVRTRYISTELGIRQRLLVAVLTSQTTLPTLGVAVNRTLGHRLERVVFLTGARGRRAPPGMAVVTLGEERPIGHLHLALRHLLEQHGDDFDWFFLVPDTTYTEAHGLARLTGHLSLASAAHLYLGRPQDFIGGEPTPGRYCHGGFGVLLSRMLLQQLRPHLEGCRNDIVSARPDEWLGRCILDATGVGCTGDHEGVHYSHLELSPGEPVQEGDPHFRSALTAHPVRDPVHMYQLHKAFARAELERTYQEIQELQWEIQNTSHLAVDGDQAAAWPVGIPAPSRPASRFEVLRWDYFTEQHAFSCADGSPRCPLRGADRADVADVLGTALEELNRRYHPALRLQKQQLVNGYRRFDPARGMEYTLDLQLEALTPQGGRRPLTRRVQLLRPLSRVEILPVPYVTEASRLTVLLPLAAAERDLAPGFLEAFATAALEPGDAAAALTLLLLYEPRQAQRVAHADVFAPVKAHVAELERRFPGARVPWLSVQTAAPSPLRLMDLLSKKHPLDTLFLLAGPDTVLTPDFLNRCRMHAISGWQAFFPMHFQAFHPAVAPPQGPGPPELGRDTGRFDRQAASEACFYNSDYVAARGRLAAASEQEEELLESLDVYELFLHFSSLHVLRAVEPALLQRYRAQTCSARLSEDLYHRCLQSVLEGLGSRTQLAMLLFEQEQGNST
UniProt P51911: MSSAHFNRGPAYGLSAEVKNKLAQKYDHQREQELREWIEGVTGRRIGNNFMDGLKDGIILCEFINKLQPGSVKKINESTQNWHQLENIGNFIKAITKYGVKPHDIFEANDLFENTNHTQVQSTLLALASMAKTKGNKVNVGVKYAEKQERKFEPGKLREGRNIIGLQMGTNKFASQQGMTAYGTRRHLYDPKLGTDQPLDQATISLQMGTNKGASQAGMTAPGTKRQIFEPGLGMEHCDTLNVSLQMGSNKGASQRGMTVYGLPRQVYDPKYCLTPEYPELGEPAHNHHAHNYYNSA
UniProt Q92989: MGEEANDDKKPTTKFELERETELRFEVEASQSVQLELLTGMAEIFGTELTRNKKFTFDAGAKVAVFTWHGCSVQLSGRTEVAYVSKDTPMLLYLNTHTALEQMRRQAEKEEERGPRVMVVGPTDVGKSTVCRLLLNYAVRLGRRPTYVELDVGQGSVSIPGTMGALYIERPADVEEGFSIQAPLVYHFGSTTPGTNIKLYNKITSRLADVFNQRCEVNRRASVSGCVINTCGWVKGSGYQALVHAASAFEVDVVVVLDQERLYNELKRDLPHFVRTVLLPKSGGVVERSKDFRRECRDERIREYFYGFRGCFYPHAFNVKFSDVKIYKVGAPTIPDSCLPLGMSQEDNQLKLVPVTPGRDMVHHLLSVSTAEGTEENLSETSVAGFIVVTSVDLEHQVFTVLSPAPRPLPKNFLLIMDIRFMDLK
UniProt Q8IZR5: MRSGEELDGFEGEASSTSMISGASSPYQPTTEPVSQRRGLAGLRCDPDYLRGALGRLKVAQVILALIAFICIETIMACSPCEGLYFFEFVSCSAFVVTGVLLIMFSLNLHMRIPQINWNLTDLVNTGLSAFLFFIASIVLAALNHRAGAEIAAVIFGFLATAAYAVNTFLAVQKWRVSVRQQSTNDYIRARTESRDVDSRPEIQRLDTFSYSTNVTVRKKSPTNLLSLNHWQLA
UniProt Q96MW5: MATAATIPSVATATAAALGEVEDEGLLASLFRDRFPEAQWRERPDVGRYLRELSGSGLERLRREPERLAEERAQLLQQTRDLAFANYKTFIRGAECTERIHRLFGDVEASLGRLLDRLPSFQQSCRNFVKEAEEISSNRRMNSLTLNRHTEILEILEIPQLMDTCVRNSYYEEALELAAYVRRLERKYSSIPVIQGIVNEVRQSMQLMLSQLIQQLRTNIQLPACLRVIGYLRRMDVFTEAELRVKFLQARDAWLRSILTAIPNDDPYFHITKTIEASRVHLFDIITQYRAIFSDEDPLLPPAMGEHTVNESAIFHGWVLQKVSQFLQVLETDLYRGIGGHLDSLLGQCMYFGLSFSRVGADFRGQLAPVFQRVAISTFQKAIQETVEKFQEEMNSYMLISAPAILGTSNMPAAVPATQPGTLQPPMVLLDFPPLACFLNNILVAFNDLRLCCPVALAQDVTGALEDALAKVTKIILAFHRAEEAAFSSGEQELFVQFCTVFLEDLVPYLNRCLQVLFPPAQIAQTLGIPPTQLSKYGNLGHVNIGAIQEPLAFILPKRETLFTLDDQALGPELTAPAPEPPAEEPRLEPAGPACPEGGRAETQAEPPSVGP
UniProt Q7Z7A1: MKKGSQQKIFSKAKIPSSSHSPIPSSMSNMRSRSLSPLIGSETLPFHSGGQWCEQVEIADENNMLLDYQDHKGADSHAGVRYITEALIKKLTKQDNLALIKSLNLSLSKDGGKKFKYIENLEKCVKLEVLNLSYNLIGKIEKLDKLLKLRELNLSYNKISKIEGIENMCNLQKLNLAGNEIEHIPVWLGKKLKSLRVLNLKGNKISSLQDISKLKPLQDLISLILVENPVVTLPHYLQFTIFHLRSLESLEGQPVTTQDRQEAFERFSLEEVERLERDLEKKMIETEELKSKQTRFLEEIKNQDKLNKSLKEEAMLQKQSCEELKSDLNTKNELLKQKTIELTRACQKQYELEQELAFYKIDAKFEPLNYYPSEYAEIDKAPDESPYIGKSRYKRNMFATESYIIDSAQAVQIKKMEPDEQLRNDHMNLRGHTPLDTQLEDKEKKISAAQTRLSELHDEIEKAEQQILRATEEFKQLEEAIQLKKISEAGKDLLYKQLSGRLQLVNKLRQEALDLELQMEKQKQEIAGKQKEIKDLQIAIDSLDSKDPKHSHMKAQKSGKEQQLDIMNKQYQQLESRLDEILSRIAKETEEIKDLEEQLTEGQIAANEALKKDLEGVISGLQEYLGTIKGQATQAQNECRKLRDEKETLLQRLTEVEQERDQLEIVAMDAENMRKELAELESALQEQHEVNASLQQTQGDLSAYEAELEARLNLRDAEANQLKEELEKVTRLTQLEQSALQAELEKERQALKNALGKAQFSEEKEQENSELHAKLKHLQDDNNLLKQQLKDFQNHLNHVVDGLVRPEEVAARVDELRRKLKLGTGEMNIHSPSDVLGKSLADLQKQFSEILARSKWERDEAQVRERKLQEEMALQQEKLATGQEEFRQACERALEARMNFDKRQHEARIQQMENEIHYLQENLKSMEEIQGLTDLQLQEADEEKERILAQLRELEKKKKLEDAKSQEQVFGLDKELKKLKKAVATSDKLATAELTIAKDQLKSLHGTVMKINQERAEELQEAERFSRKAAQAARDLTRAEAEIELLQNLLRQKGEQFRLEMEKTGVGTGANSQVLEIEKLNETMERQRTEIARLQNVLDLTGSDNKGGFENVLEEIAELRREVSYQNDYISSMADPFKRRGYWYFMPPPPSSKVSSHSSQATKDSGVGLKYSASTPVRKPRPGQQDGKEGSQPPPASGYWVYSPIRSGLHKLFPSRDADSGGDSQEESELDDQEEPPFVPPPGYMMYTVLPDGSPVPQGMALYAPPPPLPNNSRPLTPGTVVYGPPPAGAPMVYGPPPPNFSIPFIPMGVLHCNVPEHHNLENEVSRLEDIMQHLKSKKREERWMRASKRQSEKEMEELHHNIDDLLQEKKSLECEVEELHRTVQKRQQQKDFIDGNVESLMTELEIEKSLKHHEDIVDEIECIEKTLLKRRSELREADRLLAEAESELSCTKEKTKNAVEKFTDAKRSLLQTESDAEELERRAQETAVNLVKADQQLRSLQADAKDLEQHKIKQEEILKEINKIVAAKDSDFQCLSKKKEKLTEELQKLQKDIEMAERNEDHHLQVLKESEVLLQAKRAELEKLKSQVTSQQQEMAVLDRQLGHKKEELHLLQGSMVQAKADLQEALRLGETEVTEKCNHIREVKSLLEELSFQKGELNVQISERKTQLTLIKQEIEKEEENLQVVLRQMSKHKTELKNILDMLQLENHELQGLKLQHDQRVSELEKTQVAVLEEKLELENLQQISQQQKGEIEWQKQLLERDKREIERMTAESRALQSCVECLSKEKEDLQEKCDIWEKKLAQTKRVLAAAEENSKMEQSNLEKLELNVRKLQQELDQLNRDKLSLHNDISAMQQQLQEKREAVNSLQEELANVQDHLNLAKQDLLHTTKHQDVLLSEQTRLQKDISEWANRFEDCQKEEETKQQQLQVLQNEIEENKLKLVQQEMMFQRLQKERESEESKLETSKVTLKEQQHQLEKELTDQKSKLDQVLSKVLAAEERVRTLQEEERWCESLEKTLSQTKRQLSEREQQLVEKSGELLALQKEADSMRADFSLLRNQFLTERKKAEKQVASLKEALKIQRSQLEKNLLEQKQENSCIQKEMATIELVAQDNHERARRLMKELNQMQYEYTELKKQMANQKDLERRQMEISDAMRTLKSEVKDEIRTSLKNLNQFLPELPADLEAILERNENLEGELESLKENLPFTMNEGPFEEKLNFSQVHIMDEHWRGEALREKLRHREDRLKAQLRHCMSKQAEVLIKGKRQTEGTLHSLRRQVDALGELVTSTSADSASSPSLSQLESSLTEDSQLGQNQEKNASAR
UniProt P62633: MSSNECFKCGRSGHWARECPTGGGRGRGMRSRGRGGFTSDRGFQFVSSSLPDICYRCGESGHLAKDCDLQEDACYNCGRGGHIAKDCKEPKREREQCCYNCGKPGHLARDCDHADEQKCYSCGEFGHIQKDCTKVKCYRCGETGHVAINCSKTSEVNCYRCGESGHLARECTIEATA
UniProt Q8WUD6: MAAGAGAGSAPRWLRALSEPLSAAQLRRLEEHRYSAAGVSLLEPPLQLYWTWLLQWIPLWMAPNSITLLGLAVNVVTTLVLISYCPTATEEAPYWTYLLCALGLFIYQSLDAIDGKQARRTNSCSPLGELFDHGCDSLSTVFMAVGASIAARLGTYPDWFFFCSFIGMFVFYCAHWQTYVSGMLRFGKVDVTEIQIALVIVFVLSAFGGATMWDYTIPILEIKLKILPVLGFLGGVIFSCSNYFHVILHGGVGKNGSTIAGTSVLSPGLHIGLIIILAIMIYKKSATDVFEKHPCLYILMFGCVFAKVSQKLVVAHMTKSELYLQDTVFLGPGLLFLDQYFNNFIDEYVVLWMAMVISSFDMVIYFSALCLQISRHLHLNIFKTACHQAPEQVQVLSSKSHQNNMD

Assays:
Experiment in all cases: log2 fold change, soluble protein after heating vs DMSO (PISA); higher = thermal stabilisation; K562 cells, 10 uM, 30 min; active = over 0.2 and 3.5 SD of the protein, either way, in both replicates (recomputed)
[1] = compound: C/C(=N\NC(=O)C1=CC(=CC=C1)S(=O)(=O)N2CCOCC2)/C3=C(C=CC(=C3)Cl)O
How it was run: (§1)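 K562 cells (2×10^6 cells/mL) were treated with 10 μM compound for 30 min, and aliquots were heated for 3 min over 48°C-58°C. Pooled aliquots were extracted in PBS with 0.5% NP-40 at 4°C, and the supernatant after 21,000xg for 90 min was measured by TMTpro 16plex LC-MS/MS with channel sums equalised. Reported thermal stability, relative to control samples and from duplicates, is a log2 fold change.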

[2] = compound: C1=CC(=C(C=C1Cl)C2=NC3=NC=CN=C3C(=N2)NC4=CC=NC=C4)F
How it was run: as §1

[3] = compound: C1=CC2=C(C=CC(=C2)/C=C\3/C(=O)NC(=NCC4=CC=CS4)S3)N=C1
How it was run: as §1

[4] = compound: C1=CC2=NC=CN=C2C=C1/C=C/3\C(=O)NC(=O)S3
How it was run: as §1

[5] = compound: C1=CC=C(C=C1)C2=NC(=C(N2)C3=CC=NC=C3)C4=CC(=C(C=C4)Cl)O
How it was run: as §1

[6] = compound: C1=CC=C2C(=C1)C3=NNC4=CC=CC(=C43)C2=O
How it was run: as §1

[7] = compound: C1CCN(C1)C(=O)NC2=CC=CC(=C2)NC3=NC=C(C(=N3)NCCC4=CN=CN4)Br
How it was run: as §1

[8] = compound: C1CN(CCC1(CC2=CC=C(C=C2)Cl)N)C3=NC=NC4=C3C=CN4
How it was run: as §1

IRAK-1-4 Inhibitor I = compound: C1COCCN1CCN2C3=CC=CC=C3N=C2NC(=O)C4=CC(=CC=C4)[N+](=O)[O-] [IRAK-1-4 Inhibitor I]
How it was run: as §1

ibrutinib = compound: C=CC(=O)N1CCC[C@@H](n2nc(-c3ccc(Oc4ccccc4)cc3)c3c(N)ncnc32)C1 [ibrutinib]
How it was run: as §1

[9] = compound: CC(=O)c1cnc2ccc(-c3cc(Cl)c(O)c(Cl)c3)nc2c1N[C@H]1CC[C@H](CN(C)C)CC1
How it was run: as §1

ralimetinib = compound: CC(C)(C)Cn1c(N)nc2ccc(-c3[nH]c(C(C)(C)C)nc3-c3ccc(F)cc3)nc21 [ralimetinib]
How it was run: as §1

[10] = compound: CC(C)(O)CC(=O)NCCn1ccc2ncnc(Nc3ccc(Oc4cccc(C(F)(F)F)c4)c(Cl)c3)c21
How it was run: as §1

[11] = compound: CC(C)C[C@@H](C=O)NC(=O)[C@H](CC(C)C)NC(=O)[C@H](CC(C)C)NC(=O)OCc1ccccc1
How it was run: as §1

pinometostat = compound: CC(C)N(C[C@H]1O[C@@H](n2cnc3c(N)ncnc32)[C@H](O)[C@@H]1O)[C@H]1C[C@@H](CCc2nc3cc(C(C)(C)C)ccc3[nH]2)C1 [pinometostat]
How it was run: as §1

[12] = compound: CC1=C(C(CC(=O)N1)C2=CC=C(C=C2)C(F)(F)F)C(=O)NC3=C(C=C4C(=C3)C=NN4)F
How it was run: as §1

[13] = compound: CC1=C(C2=C(C=C1)C(=O)C3=CC=CC=C3N2CCCN)C
How it was run: as §1

erlotinib = compound: C#Cc1cccc(Nc2ncnc3cc(OCCOC)c(OCCOC)cc23)c1 [erlotinib]
How it was run: as §1

[14] = compound: C1=CC(=CC=C1C2=NC3=C(N2)C=C(C=C3)C(=O)N)OC4=CC=C(C=C4)Cl
How it was run: as §1

[15] = compound: CC(C)C1=C2N=C(C=C(N2N=C1)NCC3=CC=CC=C3)NCCCCCCN
How it was run: as §1

Measured: log2 fold change

CHPF (UniProt Q8IZ52)
inactive: [1] -0.509 | [2] -0.128 | [3] -0.182 | [4] -0.001 | [5] 0.083 | [6] 0.384 | [7] 0.275 | [8] 0.315 | IRAK-1-4 Inhibitor I 0.125 | ibrutinib -0.05 | [9] -0.012 | ralimetinib 0.107 | [10] 0.296 | [11] 0.132 | pinometostat -0.206 | [12] -0.143 | [13] -0.189

COL12A1 (UniProt Q99715)
inactive: [2] 0.019 | [5] 0.276 | [7] 0.01 | [8] 0.143 | ralimetinib -0.082 | [10] -0.09 | [11] 0.144 | [13] -0.037

CNN1 (UniProt P51911)
inactive: [1] 0.062 | [2] 0.055 | [3] 0.063 | [6] 0.041 | [7] -0.129 | [8] 0.118 | [9] -0.086 | [10] -0.071 | [13] 0.145

CIP2A (UniProt Q8TCG1)
inactive: [2] -0.411 | [10] 0.044

CLP1 (UniProt Q92989)
inactive: erlotinib 0.069 | [14] -0.029 | [4] -0.013 | [7] -0.25 | [8] -0.059 | [15] -0.056 | [13] 0.195

CMTM4 (UniProt Q8IZR5)
inactive: [1] 0.147 | [2] 0.28 | [3] 0.115 | [4] -0.195 | [6] -0.202 | [7] 0.024 | [8] 0.125 | ibrutinib -0.05 | [9] -0.031 | [10] 0.041 | [12] 0 | [13] 0.128

COG8 (UniProt Q96MW5)
inactive: [2] -0.283 | IRAK-1-4 Inhibitor I -0.196 | [10] -0.407 | pinometostat 0.094

CNTRL (UniProt Q7Z7A1)
inactive: [1] -0.068 | [3] 0 | [5] 0.056 | [6] 0.043 | [7] 0.016 | [8] -0.12 | [9] 0.119 | ralimetinib -0.043 | [11] 0.021 | [12] -0.06 | [13] -0.082

CNBP isoform 4 (UniProt P62633)
inactive: [4] 0.002 | ibrutinib 0.05 | [12] 0.032

CHPT1 (UniProt Q8WUD6)
inactive: [1] 0.181 | [2] 0.24 | [3] 0.078 | [5] 0 | [6] -0.024 | [7] -0.004 | [8] 0.01 | [9] 0.023 | ralimetinib -0.132 | [10] 0.223 | [11] -0.002 | [13] 0.044
